# Test results from the supplement of paper PMC11098740.
# Chains of the proteins cited; added tags and fusions are not shown.
# UniProt O14980, whole entry: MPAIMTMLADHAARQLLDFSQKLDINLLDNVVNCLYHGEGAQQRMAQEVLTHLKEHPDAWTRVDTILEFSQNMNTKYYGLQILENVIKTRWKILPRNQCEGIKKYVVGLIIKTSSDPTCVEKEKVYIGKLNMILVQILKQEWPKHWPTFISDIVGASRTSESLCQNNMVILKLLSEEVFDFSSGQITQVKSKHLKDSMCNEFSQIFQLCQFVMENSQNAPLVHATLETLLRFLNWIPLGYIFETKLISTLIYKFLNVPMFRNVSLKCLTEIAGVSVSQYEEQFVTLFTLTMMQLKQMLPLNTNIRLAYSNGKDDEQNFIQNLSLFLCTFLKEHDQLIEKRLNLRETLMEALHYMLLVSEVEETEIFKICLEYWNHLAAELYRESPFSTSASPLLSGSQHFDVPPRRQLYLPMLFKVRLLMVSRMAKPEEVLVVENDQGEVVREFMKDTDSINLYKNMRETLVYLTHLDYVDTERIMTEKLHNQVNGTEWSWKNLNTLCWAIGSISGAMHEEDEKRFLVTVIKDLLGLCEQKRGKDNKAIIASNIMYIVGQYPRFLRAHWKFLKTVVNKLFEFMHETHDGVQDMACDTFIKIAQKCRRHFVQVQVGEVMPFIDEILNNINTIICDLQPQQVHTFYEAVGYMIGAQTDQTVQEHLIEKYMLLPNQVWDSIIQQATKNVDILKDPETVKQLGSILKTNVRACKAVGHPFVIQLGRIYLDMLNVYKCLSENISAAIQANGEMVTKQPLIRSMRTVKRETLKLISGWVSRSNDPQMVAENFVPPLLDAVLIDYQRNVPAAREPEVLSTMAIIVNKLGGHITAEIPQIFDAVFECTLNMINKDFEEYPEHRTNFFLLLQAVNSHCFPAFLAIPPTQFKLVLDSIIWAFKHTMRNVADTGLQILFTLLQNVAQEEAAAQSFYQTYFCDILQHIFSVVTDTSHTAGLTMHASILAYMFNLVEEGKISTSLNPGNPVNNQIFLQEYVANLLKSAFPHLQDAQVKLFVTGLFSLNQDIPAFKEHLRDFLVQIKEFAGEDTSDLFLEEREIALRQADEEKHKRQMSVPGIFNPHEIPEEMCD
# The other results are listed elsewhere or left out. Many values rest on one well or one pass, so single values are uncertain.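 Test system: a mixed pool of 41 HAP1 clones in which 61 cancer-associated proteins carry fluorescent tags inserted into introns, and each clone is identified from its image pattern. Read-outs are compared with DMSO-treated control wells. The BRD4 degrader dBET6 served as the positive control.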
# Assays:
# [1] = biological target: XPO1 (intron 15 mScarlet tag, HAP1) (UniProt O14980); experiment: XPO1 fluorescence intensity change vs DMSO (log2 fold change); higher = more XPO1 protein; settings: 6 h
# [2] = biological target: BRD4 (intron 10 mScarlet tag, HAP1) (UniProt O60885); experiment: BRD4 median nuclear fluorescence intensity change vs DMSO (log2 fold change); higher = more BRD4 protein; settings: 6 h
Structure (SMILES),XPO1 fluorescence intensity change (log2) [1],BRD4 median nuclear fluorescence intensity change (log2) [2]
CN(Cc1ccc(-c2ccc(Cl)cc2)o1)C(=O)Cn1c(=O)oc2ccccc21 (10 µM),-0.358,0.00294
O=C(CCc1cccnc1)NCc1ccc(-c2ccc(Br)cc2)o1 (0.1 µM),0.0305,0.0756
Cc1ccsc1C(=CCCN1CCC[C@@H](C(=O)O)C1)c1sccc1C [Tiagabine] (11 µM),0.16,
CN(CC(=O)NCc1ccco1)C(=O)c1ccc(-c2ccccc2)cc1 (10 µM),-0.286,0.116
Cc1oc(NC(=O)COC(=O)c2ccc(SC(F)F)cc2)c(C#N)c1C (10 µM),-0.0348,-0.0337
O=S1(=O)C=CC2ON=C(c3c(Cl)cccc3Cl)C21 (centres undefined) (10 µM),-0.282,0.00844
CC(C)(C#N)c1cc(Cn2cncn2)cc(C(C)(C)C#N)c1 [Anastrozole] (20 µM),-0.306,
O=C(Nc1ccc(Cl)cc1)Nc1nc(-c2cccc3ccccc23)cs1 (10 µM),0.0594,0.14
CCc1nc(CSc2nc(C)c(C(=O)Nc3ccccc3)cc2C#N)cs1 (1 µM),-0.109,-0.101
Cc1cc(COC(=O)c2sc(NC(=O)c3ccco3)cc2C)on1 (10 µM),-0.0327,0.0299
COc1ccc(C(=O)Nc2cccc(/C=C/C(=O)c3ccc(O)c(CCCl)c3)c2)cc1 (10 µM),-0.746,0.0262
CCOc1ccc(CCNC(=O)c2ccc(OC)c(F)c2)cc1OCC (10 µM),-0.0084,-0.0924
Clc1ccc2nc(Nc3ccncc3)nc(-c3ccccc3)c2c1 (10 µM),0.0738,0.0284
N#CC(C#N)=C1C=CC=CN1/C(=C/c1ccccc1)C(=O)c1cccs1 (10 µM),-0.0224,0.0206
Cc1cc(C(C)Nc2ncnc3c2cnn3CCC#N)c(C)s1 (centres undefined) (10 µM),0.213,0.0796
CC(=O)c1c(C)cc(C)c(CN2CCN(c3cnccn3)CC2)c1C (0.1 µM),-0.0515,0.0409
COc1ccc(-n2ccc(C(=O)Nc3cccnc3N(C)C)n2)cc1 (1 µM),-0.0148,-0.0397
CC#CCC(C)[C@H](O)/C=C/[C@@H]1[C@H]2C/C(=C/CCCC(=O)O)C[C@H]2C[C@H]1O (some centres undefined) [Iloprost] (10 µM),0.0382,
Cc1[nH]c2ccccc2c1CN1CCC(Cc2ccccc2)CC1 (10 µM),-0.11,0.049
Nc1nc2c(c(=O)[nH]1)N1C(=O)N(c3ccc(C(=O)N[C@@H](CCC(=O)O)C(=O)O)cc3)CC1CN2 (some centres undefined) (5 µM),0.0534,-0.0571
C[C@]12CC[C@@H]3c4ccc(O)cc4C[C@@H](CCCCCCCCC[S+]([O-])CCCC(F)(F)C(F)(F)F)[C@H]3[C@@H]1CC[C@@H]2O (some centres undefined) [Fulvestrant] (20 µM),0.235,
O=C(Nc1cccc2cccnc12)c1ccccc1-c1ccccc1 (10 µM),-0.0475,-0.0881
CC(C)n1ncc2cc(C(=O)Nc3cccc4c3CCCC4)cnc21 (10 µM),-0.0271,-0.0451
CCCSc1ccc2[nH]c(NC(=O)OC)nc2c1 [Albendazole] (10 µM),0.21,
COC(=O)C1=C(CCl)NC(=O)NC1c1ccccc1 (centres undefined) (10 µM),0.0156,0.113
O=C(Nc1nc(-c2ccccn2)cs1)c1ccc(OC(F)F)cc1 (10 µM),-0.0596,0.118

# Of the compounds above, 11 contain sulfur:
Structure (SMILES),XPO1 fluorescence intensity change (log2) [1],BRD4 median nuclear fluorescence intensity change (log2) [2]
Cc1ccsc1C(=CCCN1CCC[C@@H](C(=O)O)C1)c1sccc1C [Tiagabine] (11 µM),0.16,
Cc1oc(NC(=O)COC(=O)c2ccc(SC(F)F)cc2)c(C#N)c1C (10 µM),-0.0348,-0.0337
O=S1(=O)C=CC2ON=C(c3c(Cl)cccc3Cl)C21 (centres undefined) (10 µM),-0.282,0.00844
O=C(Nc1ccc(Cl)cc1)Nc1nc(-c2cccc3ccccc23)cs1 (10 µM),0.0594,0.14
CCc1nc(CSc2nc(C)c(C(=O)Nc3ccccc3)cc2C#N)cs1 (1 µM),-0.109,-0.101
Cc1cc(COC(=O)c2sc(NC(=O)c3ccco3)cc2C)on1 (10 µM),-0.0327,0.0299
N#CC(C#N)=C1C=CC=CN1/C(=C/c1ccccc1)C(=O)c1cccs1 (10 µM),-0.0224,0.0206
Cc1cc(C(C)Nc2ncnc3c2cnn3CCC#N)c(C)s1 (centres undefined) (10 µM),0.213,0.0796
C[C@]12CC[C@@H]3c4ccc(O)cc4C[C@@H](CCCCCCCCC[S+]([O-])CCCC(F)(F)C(F)(F)F)[C@H]3[C@@H]1CC[C@@H]2O (some centres undefined) [Fulvestrant] (20 µM),0.235,
CCCSc1ccc2[nH]c(NC(=O)OC)nc2c1 [Albendazole] (10 µM),0.21,
O=C(Nc1nc(-c2ccccn2)cs1)c1ccc(OC(F)F)cc1 (10 µM),-0.0596,0.118

# (next part)

Structure (SMILES),XPO1 fluorescence intensity change (log2) [1],BRD4 median nuclear fluorescence intensity change (log2) [2]
CSc1ccc(NC(=O)c2cc(-c3ccncc3)nc3ccccc23)cc1 (10 µM),-0.081,0.0447
CCc1cc2oc(=O)cc(CCl)c2cc1Cl (10 µM),-0.00209,0.0276
CC(=O)OC[C@H]1O[C@@H]([S-])[C@H](OC(C)=O)[C@@H](OC(C)=O)[C@@H]1OC(C)=O.CCP(CC)CC.[Au+] [Auranofin] (10 µM),0.0463,
Cc1cc(C)c(S(=O)(=O)NCCc2c(C)[nH]c3ccc(Br)cc23)c(C)c1 (10 µM),-0.0944,-0.0231
CC(C)c1ccccc1Nc1nc(-c2ccc(S(N)(=O)=O)cc2)cs1 (10 µM),-0.442,-0.0824
N#C[C@@H]1C[C@@H]2C[C@@H]2N1C(=O)[C@@H](N)C12CC3CC(CC(O)(C3)C1)C2 [Saxagliptin] (9.99933 µM),-0.00917,
CC(C)(C#N)c1ccc(NC(=O)Cn2cc(Br)c(=O)[nH]c2=O)cc1 (10 µM),0.143,0.0308
Nc1ccn([C@H]2CC[C@@H](COP(=O)(O)OP(=O)(O)OP(=O)(O)O)O2)c(=O)n1 [Dideoxycytidine 5'-Triphosphate (Ddctp)] (10 µM),0.0629,
FC(F)(F)c1ccc(-n2nnnc2CCl)cc1 (10 µM),-0.254,-0.0364
Cc1occc1C(=O)NCc1ccc(Oc2ccc(F)cc2)cc1 (10 µM),-0.231,0.0942
CC(=O)Nc1ccc(-c2csc(NC(=O)c3cnc4c(cnn4C(C)C)c3)n2)cc1 (10 µM),0.0231,-0.0463
CNC(=O)C1CCN(Cc2cc(Cl)c3ccccc3c2O)CC1 (0.1 µM),-0.00387,0.0509
Cc1ccsc1C(=O)N=C(c1ccc(N(C)C)cc1)c1ccc(N(C)C)cc1 (10 µM),0.0712,-0.0458
ClCc1nc2cc(Cl)ccc2n1Cc1ccccc1 (10 µM),-0.0566,0.039
c1ccc(-c2nn(-c3ccccc3)[n+](-c3ccccc3)n2)cc1 (10 µM),0.031,-0.0352
C/C(=N\Nc1nc2ccccc2n1C)c1ccc2c(c1)CCC(=O)N2 (10 µM),-0.033,-0.0127
Cc1cnn(C(CCl)CN(Cc2nc3ccc(Cl)cc3c(=O)[nH]2)Cc2nc3ccc(Cl)cc3c(=O)[nH]2)c1 (centres undefined) (10 µM),0.0399,-0.0107
CCOC(=O)c1ccsc1NC(=O)CN(CC)Cc1ccc(OC)c(F)c1 (10 µM),-0.0392,0.0461
Cc1ccccc1Nc1nc(N)nc(CN(C)Cc2c(F)cccc2Cl)n1 (10 µM),-0.0316,0.0199
Cc1ccccc1OCCOC(=O)c1cc(C)c(C)c(S(N)(=O)=O)c1 (10 µM),-0.0445,-0.113
Cc1cc(NC(=O)c2ccc(O)c(Cl)c2)ccc1N1CCCC1=O (10 µM),0.0122,0.0839
CCOC(=O)NCC(=O)NCCc1ccc(C(C)(C)C)cc1 (10 µM),-0.136,0.0906
CSc1ccc(NC(=O)c2cc(Br)ccc2O)cc1 (10 µM),-0.0909,-0.00834
O=C(NCc1cccnc1)c1ccc(/C=C/c2ccc3ccccc3n2)cc1 (10 µM),0.00928,-0.0566
COc1ccc2c(c1)CNC(c1ccccc1)C2 (centres undefined) (10 µM),-0.108,-0.022
COC(=O)c1ccc(CSc2ncnc3[nH]ncc23)cc1 (10 µM),-0.0962,0.0371

Structure (SMILES),XPO1 fluorescence intensity change (log2) [1],BRD4 median nuclear fluorescence intensity change (log2) [2]
O=C(O)CSc1cc(NS(=O)(=O)c2ccc(Br)cc2)c2ccccc2c1O (10 µM),-0.165,-0.0604
C=CCNC1=C2C[C@@H](C)C[C@H](OC)[C@H](O)[C@@H](C)/C=C(\C)[C@H](OC(N)=O)[C@@H](OC)/C=C\C=C(/C)C(=O)NC(=CC1=O)C2=O (10 µM),-0.246,0.00237
O=C(c1ccc(CS(=O)(=O)c2ccccc2)o1)N1CCc2ccc(O)cc2C1 (0.1 µM),0.0267,0.175
O=C(NCC(c1cccs1)N1CCOCC1)c1cc(Cl)ccc1F (centres undefined) (10 µM),-0.134,-0.00299
Clc1cc2c(c3ncccc13)OCN(Cc1ccccc1)C2 (10 µM),-0.252,-0.00808
Cc1ccc(Cl)cc1N1CCN(C(=O)NCc2ccc(F)cc2)CC1 (10 µM),0.0696,0.0241
N#CC(C#N)=C1C=CC=CN1/C(=C/c1ccc(Cl)cc1)C(=O)c1cccs1 (10 µM),-0.00391,0.0267
COC(=O)C1=C(C)N(c2ccc3c(c2)OCCO3)C(=S)NC1c1ccc(F)cc1 (centres undefined) (10 µM),-0.013,0.0188
COc1ccc(CC(=O)NCc2ccc(F)cc2)cc1F (10 µM),0.186,0.0712
Nc1ccn([C@@H]2O[C@H](CO)[C@@H](O)C2(F)F)c(=O)n1 [gemcitabine] (1 µM),0.0268,-0.0421
CC1(C)Cc2cccc(OCC(=O)Nc3nc4c(F)cc(F)cc4s3)c2O1 (1 µM),-0.157,-0.15
CC(C)(C)c1ccc(S(=O)(=O)NCc2ccc(C(=O)Nc3cccnc3)cc2)cc1 (0.1 µM),0.069,0.0823
Cc1cnc(NC(=O)C2CCCN2C(=O)c2ccc(Cl)c(Cl)c2)s1 (centres undefined) (10 µM),-0.336,0.0376
N#CC(C#N)=C1C=CC=CN1/C(=C/c1ccccc1Cl)C(=O)c1cccs1 (0.1 µM),0.0972,0.219
COC(=O)C1=C(CCl)N(C)C(=O)NC1c1ccccc1 (centres undefined) (10 µM),0.145,0.072
CC1(C)CC(NCCc2cccc3cccnc23)c2ccccc2O1 (centres undefined) (0.1 µM),-0.011,0.00618
Cc1sc2nc(CN3CCCCC3)nc(Sc3nnnn3C3CC3)c2c1C (10 µM),0.487,-0.116
CCOC(=O)C1=C(CCl)NC(=O)NC1c1ccco1 (centres undefined) (10 µM),0.00325,0.0345
CCc1cc(NC(=O)Cc2ccn(-c3ccc(F)cc3)n2)n[nH]1 (1 µM),-0.0259,-0.0944
CC(C)NCC(O)Cn1c2ccc(Cl)cc2c2cc(Cl)ccc21 (centres undefined) (1 µM),0.212,0.258
CC(C)c1ccc2nc(-c3ccccn3)[nH]c(=O)c2c1 (10 µM),-0.212,0.0429
N#Cc1c(NC(=O)CCCl)sc2c1CCCC2 (10 µM),-0.0586,0.00312
FC(F)(F)c1ccc(N2CCCN(c3ncnc4ccccc34)CC2)nc1 (10 µM),-0.00484,0.00866
CCN(CCN(C)C)C(=O)CNCc1cc(C(=O)O)ccn1 (20 µM),-0.0387,0.0907
